Laboratory results: patent publication US7011824B2, “Methods of treating manure” (priority 1998, dated 2006)

Tests used:
[1] = Effect of aluminum chloride and alum on phosphorus solubility and pH of swine manure slurry (Example 1)
[2] = Effect of 10 ml of 10% alum or aluminum chloride on soluble reactive phosphorus and pH of fresh liquid swine waste (Example 2); details: 10 ml of 10% solution per 100 ml slurry

[Cl][Al]([Cl])[Cl] [aluminum chloride]
pH ([1]; 0-10 ml of 10% solution per 100 ml slurry, FIG. 2): reduced the pH
hydrogen sulfide gas formation ([1]; treatment added to swine manure slurry): did not result in hydrogen sulfide gas formation
soluble phosphorus levels (SRP) ([2]; 3 days at 25° C., FIG. 3): greatly reduced soluble phosphorus levels
decrease in soluble phosphorus ([2]; versus control): about 100 fold
